# Reference: PubChem BioAssay AID445 (National Center for Advancing Translational Sciences (NCATS), 2006)
# The other results are listed elsewhere or left out. Further columns of the screen follow, without active or inactive calls. Compounds called inactive in the main read-out are mostly missing here. The note in brackets gives the kind of curve behind each potency; many fits are weak.
# Assay: IkB Signaling
# Details: ABC-DLBCL IkBa-CBG/CBR dual luciferase ratio (green luciferase fused to IkBa over red control in OCI-Ly3 lymphoma cells), 4 h
# Method in brief: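 Curves were fitted separately to fusion (green), unfused (red) and ratio luminescence, then classed by r2, magnitude and activity. Cells: OCI-Ly3, 4 h compound plus doxycycline at 37C; 10 uM MG-132 defined full response.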
# [1] = measured here: control luc red channel unless noted
# [2] = measured here: IkB-luc green channel
# [3] = measured here: control luc red channel
compound,measurement,setting,value
CC1CCN(S(=O)(=O)c2ccc3c(c2)N(CC(=O)N2CCN(c4ccc(Cl)cc4)CC2)C(=O)CO3)CC1,AC50,[1],"15.8 µM [falling, partial curve]"
Cc1ccc2cc(CN(Cc3ccco3)C(=O)c3ccccc3)c(=O)[nH]c2c1C,AC50,[1],"25.1 µM [falling, partial curve]"
COc1ccc2[nH]cc(CCNC(=O)Nc3ccc(F)cc3)c2c1,AC50,[1],"3.16 µM [falling, partial curve]"
Cc1ccc(C)c(N2CCN(C(=O)c3cc(S(=O)(=O)N4CCCCC4)cn3C)CC2)c1,AC50,[1],"39.8 µM [falling, single point]"
O=C(c1ccc(CSc2nc3ccncc3n2Cc2ccccc2F)cc1)N1CCCCCC1,AC50,[1],"25.1 µM [falling, single point]"
CC(C)S(=O)(=O)c1oc(-c2ccc(F)cc2)nc1S(=O)(=O)c1ccc(F)cc1,AC50,[1],"2 µM [falling, full curve]"
Cc1cccc(OCC(=O)N(Cc2cccc(Cl)c2)Cc2ccco2)c1C,AC50,[1],"25.1 µM [falling, partial curve]"
O=C1COc2ccc(C(=O)CSc3nnc(-c4cccs4)n3Cc3ccccc3)cc2N1,AC50,[1],"7.94 µM [falling, partial curve]"
Cc1ccc(S(=O)(=O)c2nc(-c3ccccc3)oc2N2CCCCCC2)cc1,AC50,[1],"31.6 µM [falling, partial curve]"
Cc1noc(/C=C/N(C)C)c1S(=O)(=O)N1CCCC(C(=O)NCc2ccc(F)cc2)C1 (centres undefined),AC50,[1],"12.6 µM [falling, partial curve]"
Cc1ccccc1CSc1nc(-c2ccccc2)nc2c1Cc1c(CO)cnc(C)c1O2,AC50,[1],"0.126 µM [falling, full curve, poor fit]"
Nc1c(C(=O)NC2CCCCC2)nsc1C(=O)OCC(=O)NC1CCCCC1,AC50,[1],"0.0631 µM [falling, full curve]"
COc1cccc(-c2cc(C(=O)NCc3ccccc3)[nH]n2)c1,AC50,[1],"15.8 µM [falling, partial curve]"
CCOc1ccc(C(C)C)cc1S(=O)(=O)Nc1cccc(-c2ccc(N3CCOCC3)nn2)c1,AC50,[1],"0.1 µM [falling, full curve]"
Cc1ccc(NC(=O)C(Cc2ccccc2)NS(=O)(=O)c2ccc3c(c2)c(=O)n(C)c(=O)n3C)cc1 (centres undefined),AC50,[1],"15.8 µM [falling, partial curve]"
CCN(C(=O)c1cc(S(=O)(=O)N2CCOCC2)cn1C)c1ccc(OC)cc1,AC50,[1],"2.51 µM [falling, partial curve, poor fit]"
CCCC(=O)Oc1c(Sc2ccc(Cl)cc2)c(C)nn1-c1ccccc1,AC50,[1],"3.16 µM [falling, partial curve]"
Cc1cc(NC(=O)CSc2cn(CCNC(=O)c3ccc(F)cc3)c3ccccc23)no1,AC50,[1],"25.1 µM [falling, partial curve]"
O=C(Nc1cccc(F)c1)C1CC(=O)N(c2ccc(Br)cc2)C1 (centres undefined),AC50,[1],"12.6 µM [falling, partial curve]"
CC(C)(C)c1ccc(OCC(=O)N(Cc2ccco2)Cc2ccccc2F)cc1,AC50,[1],"15.8 µM [falling, partial curve]"
COc1cc(OC)cc(-c2nnc(SCC(=O)N3CCC(C)CC3)o2)c1,AC50,[1],"25.1 µM [falling, single point]"
COc1ccc(CCNC(=O)CCn2c(=O)c3ccccc3n(CC(=O)Nc3cccc(C)c3)c2=O)cc1OC,AC50,[1],"0.631 µM [rising, full curve, poor fit]"
COc1ccc(Nc2oc(-c3ccc(COc4ccc(OC)cc4)o3)nc2C#N)cc1,AC50,[1],"6.31 µM [rising, full curve, poor fit]"
CCC(C)NC(=O)C1CCN(C(=O)c2cc3sccc3n2Cc2ccc(Cl)cc2)CC1 (centres undefined),AC50,[1],"6.31 µM [falling, partial curve]"
CCc1ccccc1N1CC(c2nc3ccccc3n2CC(C)C)CC1=O (centres undefined),AC50,[1],"25.1 µM [falling, single point]"
CCCCN(CC)c1ncnc2c1sc1nc(N3CCOCC3)c3c(c12)CCCC3,AC50,[1],"7.94 µM [rising, partial curve]"
Cc1ccc(C)c(S(=O)(=O)c2nnn3c2nc(N2CCCC2)c2sccc23)c1,AC50,[1],"39.8 µM [falling, single point]"
O=C1CC(c2cccc(F)c2)C2=C(CCCC2=O)N1 (centres undefined),AC50,[1],"5.01 µM [falling, partial curve]"
O=c1nc(-c2ccccc2)c2cc(Cl)ccc2[nH]1,AC50,[1],"20 µM [falling, partial curve]"
O=C(CSc1nc2ccccc2c(=O)n1Cc1ccco1)N1CCCCCC1,AC50,[1],"15.8 µM [falling, partial curve]"
O=C(c1ccco1)[C@@H]1[C@@H]2C(=O)N(c3ccccc3)C(=O)[C@@H]2C2c3ccccc3C=CN21 (some centres undefined),AC50,[1],"0.794 µM [falling, full curve]"
CC(C)(C)c1ccc(OCCSc2nc(-c3cccs3)nc3cc(=O)[nH]n23)cc1,AC50,[1],"39.8 µM [falling, single point]"
COc1cccc2sc(Nc3nnc(-c4ccccc4Cl)o3)nc12,AC50,[2],"3.16 µM [rising, partial curve]"
same,AC50,[3],"0.398 µM [falling, partial curve]"
CC(=O)Nc1cccc(-c2nnc(SCC(=O)c3cc([N+](=O)[O-])ccc3Br)o2)c1,AC50,[2],"6.31 µM [rising, single point]"
same,AC50,[3],"31.6 µM [falling, single point]"
COc1cc(C(c2c(C)[nH][nH]c2=O)c2c(C)[nH][nH]c2=O)ccc1OC(=O)c1ccccc1F,AC50,[1],"6.31 µM [falling, full curve]"
CCCCn1c2c(c3ccccc31)CCc1nonc1-2,AC50,[1],"3.16 µM [rising, full curve]"
CC(=O)c1cccc(Nc2c3c(nc4nc(-c5cccs5)nn24)CCCC3)c1,AC50,[1],"12.6 µM [falling, partial curve]"
COC(=O)c1ccc2oc(=O)c(S(=O)(=O)c3ccc(C)cc3)cc2c1,AC50,[1],"1.58 µM [falling, full curve, poor fit]"
CCCC(=O)Nc1cccc(-c2nc3cc(C)c(C)cc3o2)c1C,AC50,[1],"2.51 µM [falling, full curve]"
COc1ccc(F)cc1NC(=O)C1CCN(c2nc(-c3ccc(OC)c(OC)c3)no2)CC1,AC50,[1],"10 µM [falling, partial curve]"
COc1ccc(Nc2ncc(C(=O)Nc3cc(C)ccc3OC)c3ccccc23)cc1,AC50,[1],"3.16 µM [falling, full curve]"
O=C(COc1ccc(F)cc1)Nc1cccc(OCc2cc(=O)n3ccccc3n2)c1,AC50,[1],"0.158 µM [falling, full curve]"
COc1ccc(NC(=O)CCc2c(C)nc3c(-c4ccccc4)c(C)nn3c2C)cc1Cl,AC50,[1],"12.6 µM [falling, partial curve]"
Cc1cc(Cl)ccc1NC(=O)CSc1nnc(Cc2cccs2)n1Cc1ccco1,AC50,[1],"12.6 µM [falling, partial curve]"
CCOC(=O)c1nnn(C(CC)C(=O)Nc2c(C)cccc2C)c1C(=O)OCC (centres undefined),AC50,[1],"3.16 µM [falling, partial curve, poor fit]"
CCN(CC)C(=O)CSc1nnc2[nH]c(=O)cc(C)n12,AC50,[1],"0.0501 µM [rising, full curve, poor fit]"
CCc1ccccc1NC(=O)c1cc(-c2cccc(O)c2)on1,AC50,[1],"6.31 µM [falling, partial curve]"
Cc1ccc(NC(=O)N2CCN(c3nnc(C)c4c(C)n(-c5ccccc5)nc34)CC2)c(Cl)c1,AC50,[1],"0.0794 µM [rising, full curve]"
O=c1oc2ccccc2c(O)c1/C=N/c1nc(-c2ccc(O)c(O)c2)cs1,AC50,[1],"2 µM [falling, partial curve]"
CCc1ccccc1NC(=O)CCCN1C(=O)COc2ccc(C)cc21,AC50,[1],"0.2 µM [falling, full curve, poor fit]"
CCOc1ccc(-c2cccc(NS(=O)(=O)c3ccc(Cl)s3)c2)nn1,AC50,[1],"15.8 µM [falling, partial curve]"
Cc1ccc2c(c1)c1c(c(=O)n(-c3cccc(Cl)c3)c(=O)n1C)n2C,AC50,[1],"0.316 µM [falling, full curve]"
COc1ccc(C)cc1S(=O)(=O)N1CCN(c2cccc(C(F)(F)F)c2)CC1,AC50,[1],"39.8 µM [falling, single point]"
C[C@@H](COc1ccc(/C=C\c2ccccc2)cc1)[N+](C)(C)C,AC50,[1],"7.94 µM [falling, full curve] [measured here: IkB-luc green channel]"
CCOC(=O)c1c(NC(=O)c2cc3nc(-c4ccc(OC)cc4)cc(C(F)(F)F)n3n2)sc(C)c1C,AC50,[1],"6.31 µM [rising, partial curve]"
CCc1cccc(NC(=O)c2c(C)oc3ncnc(N4CCCCC4)c23)c1,AC50,[1],"20 µM [falling, partial curve]"
O=C1CN(C(=O)COc2ccc(Cl)cc2Cl)C(c2ccc(F)cc2)c2cc(F)ccc2N1 (centres undefined),AC50,[1],"15.8 µM [falling, partial curve]"
Fc1cccc(Cl)c1CSc1nnnn1-c1ccc2c(c1)OCO2,AC50,[1],"20 µM [falling, partial curve]"
CNc1nc(Oc2ccc(=O)[nH]n2)nc(N2CCOCC2)n1,AC50,[1],"25.1 µM [rising, partial curve, poor fit]"
COC(=O)C(CC(C)C)NC(=O)c1cc(OC)c(OC)c(OC)c1 (centres undefined),AC50,[1],"20 µM [falling, partial curve]"
CC1=C(C#N)C(NC(=O)C2CC2)(C(F)(F)F)C(=O)N1 (centres undefined),AC50,[1],"31.6 µM [falling, single point]"
COc1ccc(-n2cc(C(=O)Nc3ccccc3C#N)c3ccccc3c2=O)cc1,AC50,[1],"10 µM [falling, partial curve]"

# As a short view, part of the list above:
compound,measurement,setting,value
CCc1cccc(NC(=O)c2c(C)oc3ncnc(N4CCCCC4)c23)c1,AC50,[1],"20 µM [falling, partial curve]"
O=C1CN(C(=O)COc2ccc(Cl)cc2Cl)C(c2ccc(F)cc2)c2cc(F)ccc2N1 (centres undefined),AC50,[1],"15.8 µM [falling, partial curve]"
Fc1cccc(Cl)c1CSc1nnnn1-c1ccc2c(c1)OCO2,AC50,[1],"20 µM [falling, partial curve]"
CNc1nc(Oc2ccc(=O)[nH]n2)nc(N2CCOCC2)n1,AC50,[1],"25.1 µM [rising, partial curve, poor fit]"
